These are yes or no findings as the source states them, for the method shown. Binding seen in cells or lysates may run through a third protein. These calls come from enrichment with a bait or labelling near it, and not all partners need be listed.
Biological target: NCOR2-013 (Flag-tagged), truncated protein of NCOR2/SMRT (human)
Experiment: affinity purification with mass spectrometry

B1: JunB (protein, UniProt P17275 1-347)
chain: MCTKMEQPFYHDDSYTATGYGRAPGGLSLHDYKLLKPSLAVNLADPYRSLKAPGARGPGPEGGGGGSYFSGQGSDTGASLKLASSELERLIVPNSNGVITTTPTPPGQYFYPRGGGSGGGAGGAGGGVTEEQEGFADGFVKALDDLHKMNHVTPPNVSLGATGGPPAGPGGVYAGPEPPPVYTNLSSYSPASASSGGAGAAVGTGSSYPTTTISYLPHAPPFAGGHPAQLGLGRGASTFKEEPQTVPEARSRDATPPVSPINMEDQERIKVERKRLRNRLAATKCRKRKLERIARLEDKVKTLKAENAGLSSTAGLLREQVAQLKQKVMTHVSNGCQLLLGVKGHAF
Question: With B1 as the binder, how does the binding read?
Answer: binds

From publication doi:10.1101/2022.07.11.499655
